Measurements published in paper PMC11847914.
No constants are given. Whether binding was seen depends on the method and setting. In cells and extracts the contact can be indirect. These calls come from enrichment with a bait or labelling near it, and not all partners need be listed.

Protein sequences, listed by entry. Tags and fused reporters are not part of them.
UniProt O95931: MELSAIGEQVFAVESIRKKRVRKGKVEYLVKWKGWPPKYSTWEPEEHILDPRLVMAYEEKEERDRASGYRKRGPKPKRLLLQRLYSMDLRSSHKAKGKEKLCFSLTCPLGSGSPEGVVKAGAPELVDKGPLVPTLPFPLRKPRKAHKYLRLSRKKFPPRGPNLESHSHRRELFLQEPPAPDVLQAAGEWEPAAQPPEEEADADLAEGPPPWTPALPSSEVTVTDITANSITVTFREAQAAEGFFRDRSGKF
UniProt Q06587: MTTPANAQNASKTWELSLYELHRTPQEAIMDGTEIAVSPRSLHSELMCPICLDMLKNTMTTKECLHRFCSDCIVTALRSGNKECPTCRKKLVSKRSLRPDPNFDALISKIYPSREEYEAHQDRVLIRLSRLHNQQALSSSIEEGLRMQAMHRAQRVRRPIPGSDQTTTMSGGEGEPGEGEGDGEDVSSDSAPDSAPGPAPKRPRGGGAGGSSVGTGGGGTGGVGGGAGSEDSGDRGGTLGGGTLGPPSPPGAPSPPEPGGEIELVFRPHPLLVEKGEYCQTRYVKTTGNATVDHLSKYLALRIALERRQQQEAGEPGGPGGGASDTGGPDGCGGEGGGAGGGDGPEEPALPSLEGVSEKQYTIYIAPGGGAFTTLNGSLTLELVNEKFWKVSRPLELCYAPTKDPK
UniProt P35579: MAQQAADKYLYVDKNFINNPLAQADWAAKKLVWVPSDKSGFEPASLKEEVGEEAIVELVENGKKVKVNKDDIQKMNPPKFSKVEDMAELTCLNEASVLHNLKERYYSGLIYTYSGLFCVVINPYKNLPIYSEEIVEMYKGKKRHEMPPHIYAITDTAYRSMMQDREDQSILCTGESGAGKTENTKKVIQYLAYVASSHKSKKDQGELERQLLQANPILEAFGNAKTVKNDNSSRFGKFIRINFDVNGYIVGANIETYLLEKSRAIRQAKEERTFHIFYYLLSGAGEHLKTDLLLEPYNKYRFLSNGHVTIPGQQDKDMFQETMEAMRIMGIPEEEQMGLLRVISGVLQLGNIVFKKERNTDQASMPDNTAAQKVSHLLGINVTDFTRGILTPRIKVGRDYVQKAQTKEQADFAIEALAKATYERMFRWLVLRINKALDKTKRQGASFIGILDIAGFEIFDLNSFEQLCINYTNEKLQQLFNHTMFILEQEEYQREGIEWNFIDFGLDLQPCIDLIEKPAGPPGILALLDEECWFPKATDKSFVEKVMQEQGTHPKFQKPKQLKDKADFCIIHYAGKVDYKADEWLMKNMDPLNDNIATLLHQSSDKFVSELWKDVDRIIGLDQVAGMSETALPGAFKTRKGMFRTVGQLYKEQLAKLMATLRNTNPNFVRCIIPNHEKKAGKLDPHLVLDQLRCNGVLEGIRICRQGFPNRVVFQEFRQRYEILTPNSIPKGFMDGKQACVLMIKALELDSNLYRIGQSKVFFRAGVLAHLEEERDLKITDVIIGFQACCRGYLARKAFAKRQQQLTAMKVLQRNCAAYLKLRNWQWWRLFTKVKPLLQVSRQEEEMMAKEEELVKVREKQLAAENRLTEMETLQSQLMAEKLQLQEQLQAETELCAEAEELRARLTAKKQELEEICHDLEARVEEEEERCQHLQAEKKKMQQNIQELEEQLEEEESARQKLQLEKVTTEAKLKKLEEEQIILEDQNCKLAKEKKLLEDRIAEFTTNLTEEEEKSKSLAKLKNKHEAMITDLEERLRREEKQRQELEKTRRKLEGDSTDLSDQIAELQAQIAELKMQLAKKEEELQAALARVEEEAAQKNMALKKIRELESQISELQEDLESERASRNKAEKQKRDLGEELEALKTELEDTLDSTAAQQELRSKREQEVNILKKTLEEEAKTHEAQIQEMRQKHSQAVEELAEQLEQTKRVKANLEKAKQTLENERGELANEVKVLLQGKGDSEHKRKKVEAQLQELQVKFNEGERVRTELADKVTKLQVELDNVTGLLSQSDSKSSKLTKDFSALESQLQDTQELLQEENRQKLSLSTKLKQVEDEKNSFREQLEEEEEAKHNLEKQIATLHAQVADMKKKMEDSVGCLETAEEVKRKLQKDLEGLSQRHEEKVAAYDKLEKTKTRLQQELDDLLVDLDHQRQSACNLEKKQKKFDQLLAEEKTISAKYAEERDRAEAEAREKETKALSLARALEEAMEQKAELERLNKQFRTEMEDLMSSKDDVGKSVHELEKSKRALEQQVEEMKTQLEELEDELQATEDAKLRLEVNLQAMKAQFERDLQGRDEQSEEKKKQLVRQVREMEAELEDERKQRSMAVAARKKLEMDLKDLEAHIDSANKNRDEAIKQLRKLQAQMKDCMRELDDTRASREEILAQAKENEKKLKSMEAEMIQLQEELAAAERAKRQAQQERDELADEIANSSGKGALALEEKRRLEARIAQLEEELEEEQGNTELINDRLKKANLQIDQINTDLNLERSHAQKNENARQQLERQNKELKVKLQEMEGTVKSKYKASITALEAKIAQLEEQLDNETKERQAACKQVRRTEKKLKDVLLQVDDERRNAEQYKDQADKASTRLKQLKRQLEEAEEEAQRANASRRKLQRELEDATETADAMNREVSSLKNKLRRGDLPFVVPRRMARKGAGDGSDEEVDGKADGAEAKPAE

Molecular target: Flag-tagged Chromobox protein homolog 7 (CBX7), adenoviral overexpression in U251 cells (human) (UniProt O95931)
Experiment: affinity purification with mass spectrometry; U251 cells transiently transfected with Flag-tagged CBX7 adenoviral vector; co-IP with anti-Flag antibody or IgG as control, then LC-MS/MS

Row | binding | Substance
1 | binds | RING1A (RNF1), endogenous (from UniProt Q06587 1-406)
2 | binds | myosin heavy chain 9 (MYH9), endogenous (from UniProt P35579 1-1960)
